Data published in the supplement of paper PMC12889115.
The other results are listed elsewhere or left out. These are raw signals, not scaled to a control.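 First-pass screen: polymyxin B was added at a level that permeabilizes the Salmonella outer membrane while sparing the inner membrane. DMSO wells, with and without polymyxin B, defined maximum growth. Because plates differed from one another, each plate's data were ranked separately and the compounds with the lowest OD600 were carried forward as hits.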

System: Salmonella enterica serovar Typhimurium SL1344
Assay: bacterial growth OD600 after 18 h with compound and polymyxin B; higher = more bacterial growth (less inhibition)
Conditions: 50 µM, Mueller-Hinton broth

Compound	bacterial growth OD600 (polymyxin B 1 µg/mL)	bacterial growth OD600 (polymyxin B 0.75 µg/mL)
COc1cccc(NC(=O)CCC2CCN(C(=O)[C@H]3C[C@@H]4C=C[C@H]3C4)CC2)c1	1.15	
COc1ccc(OC2CCN(C3CCCC3)CC2)c(C(=O)NC(C)c2ccncn2)c1 (configuration not stated)	0.892	
O=C(CCC1CCCN(C(=O)c2cc3c(nc2Cl)CCC3)C1)NC1CC1 (configuration not stated)	1.02	
CN(CCc1ccccn1)c1ncccc1CNC(=O)c1ccccn1	0.939	
COC(CNc1nc2nonc2nc1NCc1cccs1)c1cccs1 (configuration not stated)	0.944	
CCN1CCN(C2(C(=O)NCc3csc(C)n3)Cc3ccccc3C2)CC1		0.836
CCOC(=O)N1CCN(C(=O)C2CCC(=O)N(CCc3ccccn3)C2)CC1 (configuration not stated)	0.701	
Cc1ncc2c(c1CNC(=O)c1ccc3c(c1)OCO3)CCN(C(=O)c1ccc(N3CCCC3)cc1)C2		0.913
c1ccc(COC2CCN(c3nc4nonc4nc3N3CCSCC3)CC2)nc1	0.825	
CC(=O)NCCNC(=O)c1ccc(OC2CCN(S(C)(=O)=O)CC2)c(Cl)c1	1.13	
CSc1ccc(NC(=O)NCc2cccnc2N(C)C)cc1	0.907	
COc1ccccc1CN1CC(C(=O)NCc2c(F)ccc(C)c2F)CCC1=O (configuration not stated)	0.79	
COCc1ccc(CN(C)CC2CCCN(CCc3ccc(Cl)cc3)C2)o1 (configuration not stated)	0.756	
O=C(c1coc(COc2ccccc2)n1)N1CCCC1c1nccs1 (configuration not stated)	0.937	
COc1cc(CN2CCN(Cc3ccc(F)c(OC)c3)CC2CCO)cc(OC)c1 (configuration not stated)	0.902	
COCC(=O)Nc1cc(C(=O)N(C)Cc2ccco2)cc2ncn(CCc3ccccc3)c12		0.771

Full records as entered above:
CSc1ccc(NC(=O)NCc2cccnc2N(C)C)cc1 is listed as bacterial growth OD600 (polymyxin B 1 µg/mL): 0.907
COC(CNc1nc2nonc2nc1NCc1cccs1)c1cccs1 (configuration not stated) is listed as bacterial growth OD600 (polymyxin B 1 µg/mL): 0.944
COc1cccc(NC(=O)CCC2CCN(C(=O)[C@H]3C[C@@H]4C=C[C@H]3C4)CC2)c1 is listed as bacterial growth OD600 (polymyxin B 1 µg/mL): 1.15

Going on with the list.

Compound	bacterial growth OD600 (polymyxin B 1 µg/mL)	bacterial growth OD600 (polymyxin B 0.75 µg/mL)
C[C@@H]1CN(C2(C(=O)NCCCO)Cc3ccccc3C2)C[C@H](C)O1		0.805
Cc1ncsc1C(=O)N1CCCC(CCc2cccc(F)c2)C1 (configuration not stated)		0.541
COc1ccccc1OC1CCN(Cc2c[nH]nc2-c2ccc(C)c(C)c2)CC1	0.763	
COC(=O)[C@@H](NC(=O)c1ccccc1OC1CCN(S(C)(=O)=O)CC1)C(C)C	1.03	
COc1ccc(CC2(CCC(=O)N(C)[C@@H]3CS(=O)(=O)C[C@H]3O)CCC(=O)N2)c2ccccc12 (some centres not stated)		1.01
COc1cccc(NC(=O)CCC2CCN(C(=O)Nc3ccc(OC)cc3C)CC2)c1	0.92	
CCOC(=O)C1(CCc2ccccc2)CCN(Cc2ccccn2)CC1	0.809	
Cc1ccc(-c2nc(CN3CCN(c4ccc(Cl)cn4)CC3)c(C)o2)o1	0.843	
Cc1cccc2nc(CN(C)CC3(O)CCCN(CC4CCC4)C3=O)[nH]c12 (configuration not stated)	0.884	
O=C(COc1ccccc1Cl)N1CCCC(Nc2ccc3c(c2)OCCO3)C1 (configuration not stated)	0.003	
CCOc1ccc(CNC2COc3c(cccc3OC)C2)cc1CO (configuration not stated)	0.884	
Cc1cc2nc(N3CCC(C(=O)NCC(C)C)CC3)nc(C)c2cc1C		0.764
COc1ccc2c(c1)SC(c1ccc(OC)c(C)c1)CCN2Cc1cn(C)nc1C (configuration not stated)		0.001
CCS(=O)(=O)c1ncc(CN2CCCC2c2ccccn2)n1CCc1ccccc1 (configuration not stated)		0.76
O=C(c1nc2sccn2c1CNCC1(c2ccccc2)CCOCC1)N1CCCCC1		0.672
O=C(Cc1ccc(N2CCC(NCCc3cccc4ccccc34)CC2)cc1)N1CCC(O)CC1		0.772
